Record: PubChem BioAssay AID1224830 (NIAID, 2016)
This is one part, drawn at random, of about 18,000 deposited reagents. About 2,900 of them (16%) count as active. 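Calls are made per well; low scores hint the gene aids the LPS response, high scores that it dampens it.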 Repeated entries: four replicate wells of each siRNA pool.

- Aim: 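Genes whose knock-down alters the TNF-alpha reporter response to LPS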 (primary screen)
- Cell system: human THP-1 monocytic leukaemia cells, TNF dual-luciferase reporter clone, PMA-differentiated to macrophage-like cells
- Reagent: siRNA pool against human genes, 50 nM
- Timing: LPS for 4 h, given about 3 days after siRNA transfection
- Challenge: bacterial LPS (TLR4 ligand), 10 ng/ml
- Measured: 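TNF firefly reporter luminescence divided by renilla, normalised to the plate median, then turned into a robust z-score for each replicate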
- Reading the numbers: TNF reporter robust z-score: higher = stronger TNF reporter response to LPS
- Hit rule: 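Each well counts as active if its z-score is over 2.8 or under -1.5; controls are left without a call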

AVEN (apoptosis and caspase activation inhibitor) [SID315458257] scored TNF reporter robust z-score 0.11; inactive.
AVEN (apoptosis and caspase activation inhibitor) [SID315458257] showed TNF reporter robust z-score -0.39; inactive.
Silencing of AVEN (apoptosis and caspase activation inhibitor) [SID315458257] came out at: TNF reporter robust z-score -0.19; inactive.
AVEN (apoptosis and caspase activation inhibitor) [SID315458257] scored TNF reporter robust z-score 0.46; inactive.
After knock-down of MZT2B (mitotic spindle organizing protein 2B) [SID315459644], the screen gave TNF reporter robust z-score -1.61; active.
Depletion of MZT2B (mitotic spindle organizing protein 2B) [SID315459644] gave: TNF reporter robust z-score -0.87; inactive.
MZT2B (mitotic spindle organizing protein 2B) [SID315459644] gave TNF reporter robust z-score -1.16; inactive.
Knock-down of MZT2B (mitotic spindle organizing protein 2B) [SID315459644] came out at: TNF reporter robust z-score -1.03; inactive.
Silencing of RGS14 (regulator of G protein signaling 14) [SID315454256] gave: TNF reporter robust z-score 1.71; inactive.
With knock-down of RGS14 (regulator of G protein signaling 14) [SID315454256], the record shows TNF reporter robust z-score 1.9; inactive.
After knock-down of RGS14 (regulator of G protein signaling 14) [SID315454256] the results were TNF reporter robust z-score 1.15; inactive.
With knock-down of RGS14 (regulator of G protein signaling 14) [SID315454256], the record shows TNF reporter robust z-score 0.45; inactive.
After knock-down of KRT16 (keratin 16) [SID315449699], the screen gave TNF reporter robust z-score 2.14; inactive.
With knock-down of KRT16 (keratin 16) [SID315449699], the record shows TNF reporter robust z-score 1.88; inactive.
Depletion of KRT16 (keratin 16) [SID315449699] came out at: TNF reporter robust z-score 2.43; inactive.
For KRT16 (keratin 16) [SID315449699] the deposit lists TNF reporter robust z-score 0.69; inactive.
With knock-down of HERC2P3 (HERC2 pseudogene 3) [SID315463703] the results were TNF reporter robust z-score -1.46; inactive.
HERC2P3 (HERC2 pseudogene 3) [SID315463703] showed TNF reporter robust z-score -1.48; inactive.
With knock-down of HERC2P3 (HERC2 pseudogene 3) [SID315463703] the results were TNF reporter robust z-score -1.82; active.
Silencing of HERC2P3 (HERC2 pseudogene 3) [SID315463703] came out at: TNF reporter robust z-score -0.3; inactive.
For AQP8 (aquaporin 8) [SID315447357], the entry reads TNF reporter robust z-score 0.52; inactive.
AQP8 (aquaporin 8) [SID315447357] showed TNF reporter robust z-score 1.07; inactive.
AQP8 (aquaporin 8) [SID315447357] gave TNF reporter robust z-score 0.5; inactive.
AQP8 (aquaporin 8) [SID315447357] gave TNF reporter robust z-score 0.57; inactive.

Active calls, among the entries above:
MZT2B (mitotic spindle organizing protein 2B) [SID315459644] → TNF reporter robust z-score: -1.61; outcome: active
HERC2P3 (HERC2 pseudogene 3) [SID315463703] → TNF reporter robust z-score: -1.82; outcome: active

The results go on:
KIR2DL1 [SID315449652] scored TNF reporter robust z-score -1.27; inactive.
KIR2DL1 [SID315449652] gave TNF reporter robust z-score -0.2; inactive.
With knock-down of KIR2DL1 [SID315449652] the results were TNF reporter robust z-score -0.42; inactive.
Depletion of KIR2DL1 [SID315449652] came out at: TNF reporter robust z-score -0.1; inactive.
SIPA1L3 (signal induced proliferation associated 1 like 3) [SID315454986] gave TNF reporter robust z-score 0.19; inactive.
Against SIPA1L3 (signal induced proliferation associated 1 like 3) [SID315454986] the deposit lists TNF reporter robust z-score 0.24; inactive.
Knock-down of SIPA1L3 (signal induced proliferation associated 1 like 3) [SID315454986] came out at: TNF reporter robust z-score 0.03; inactive.
SIPA1L3 (signal induced proliferation associated 1 like 3) [SID315454986] gave TNF reporter robust z-score -1.22; inactive.
Knock-down of RAB3GAP1 (RAB3 GTPase activating protein catalytic subunit 1) [SID315454884] gave: TNF reporter robust z-score -0.45; inactive.
Against RAB3GAP1 (RAB3 GTPase activating protein catalytic subunit 1) [SID315454884], the values are TNF reporter robust z-score -0.2; inactive.
RAB3GAP1 (RAB3 GTPase activating protein catalytic subunit 1) [SID315454884] gave TNF reporter robust z-score -1.12; inactive.
Silencing of RAB3GAP1 (RAB3 GTPase activating protein catalytic subunit 1) [SID315454884] gave: TNF reporter robust z-score 0.12; inactive.
COL3A1 (collagen type III alpha 1 chain) [SID315448010] showed TNF reporter robust z-score 0.21; inactive.
Against COL3A1 (collagen type III alpha 1 chain) [SID315448010] the deposit lists TNF reporter robust z-score 0.03; inactive.
For COL3A1 (collagen type III alpha 1 chain) [SID315448010], the values are TNF reporter robust z-score 0.02; inactive.
After knock-down of COL3A1 (collagen type III alpha 1 chain) [SID315448010], the record shows TNF reporter robust z-score 0.06; inactive.
GET3 (guided entry of tail-anchored proteins factor 3, ATPase) [SID315447431] gave TNF reporter robust z-score -0.12; inactive.
Knock-down of GET3 (guided entry of tail-anchored proteins factor 3, ATPase) [SID315447431] resulted in: TNF reporter robust z-score 1.74; inactive.
With knock-down of GET3 (guided entry of tail-anchored proteins factor 3, ATPase) [SID315447431], the record shows TNF reporter robust z-score 0.43; inactive.
GET3 (guided entry of tail-anchored proteins factor 3, ATPase) [SID315447431] gave TNF reporter robust z-score 1.53; inactive.
After knock-down of OMG (oligodendrocyte myelin glycoprotein) [SID315450355], the record shows TNF reporter robust z-score 0.3; inactive.
OMG (oligodendrocyte myelin glycoprotein) [SID315450355] gave TNF reporter robust z-score 0.45; inactive.
With knock-down of OMG (oligodendrocyte myelin glycoprotein) [SID315450355], the screen gave TNF reporter robust z-score -0.18; inactive.
Silencing of OMG (oligodendrocyte myelin glycoprotein) [SID315450355] came out at: TNF reporter robust z-score 0.56; inactive.
